Data taken from publication PMC9113918.
Results are given in words; binding and its absence hold for the method and conditions named. For part of these data: Binding seen in cells or lysates may run through a third protein. Some entries that bind do so weakly or less than the wild type.

Sequences of proteins named here, by UniProt entry; tags and fusion partners are left off. A change or cut given only in a name is not applied to a line headed by its entry. A line that says so, or that is headed by a name, gives the form on record, which may keep a tag or linker.
UniProt Q9R0N7: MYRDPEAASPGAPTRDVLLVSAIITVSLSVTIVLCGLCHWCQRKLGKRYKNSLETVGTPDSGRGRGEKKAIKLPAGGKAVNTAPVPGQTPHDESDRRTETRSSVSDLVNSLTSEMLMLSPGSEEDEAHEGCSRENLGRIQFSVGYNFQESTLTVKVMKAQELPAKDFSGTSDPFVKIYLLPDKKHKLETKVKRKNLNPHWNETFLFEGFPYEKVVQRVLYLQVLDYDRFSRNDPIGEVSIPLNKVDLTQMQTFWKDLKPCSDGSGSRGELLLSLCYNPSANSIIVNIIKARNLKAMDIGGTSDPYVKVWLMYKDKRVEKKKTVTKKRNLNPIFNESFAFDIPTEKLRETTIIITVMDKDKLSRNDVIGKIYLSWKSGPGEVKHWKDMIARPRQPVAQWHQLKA
Synaptotagmin-7β expressed in tsA-201 cells (Q9R0N7-3, form named): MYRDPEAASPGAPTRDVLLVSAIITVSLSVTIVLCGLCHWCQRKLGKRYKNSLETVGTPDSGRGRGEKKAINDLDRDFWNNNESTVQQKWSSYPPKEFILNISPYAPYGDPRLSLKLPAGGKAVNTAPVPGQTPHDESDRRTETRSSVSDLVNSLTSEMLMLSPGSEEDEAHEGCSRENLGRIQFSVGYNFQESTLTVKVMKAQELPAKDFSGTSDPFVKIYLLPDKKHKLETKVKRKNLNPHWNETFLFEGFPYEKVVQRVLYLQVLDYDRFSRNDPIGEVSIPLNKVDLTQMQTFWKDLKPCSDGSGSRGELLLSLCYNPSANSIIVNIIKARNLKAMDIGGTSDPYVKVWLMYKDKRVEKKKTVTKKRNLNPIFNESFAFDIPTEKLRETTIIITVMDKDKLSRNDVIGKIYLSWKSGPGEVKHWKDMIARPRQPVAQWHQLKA
Synaptotagmin-7γ expressed in tsA-201 cells (Q9R0N7-2, form named): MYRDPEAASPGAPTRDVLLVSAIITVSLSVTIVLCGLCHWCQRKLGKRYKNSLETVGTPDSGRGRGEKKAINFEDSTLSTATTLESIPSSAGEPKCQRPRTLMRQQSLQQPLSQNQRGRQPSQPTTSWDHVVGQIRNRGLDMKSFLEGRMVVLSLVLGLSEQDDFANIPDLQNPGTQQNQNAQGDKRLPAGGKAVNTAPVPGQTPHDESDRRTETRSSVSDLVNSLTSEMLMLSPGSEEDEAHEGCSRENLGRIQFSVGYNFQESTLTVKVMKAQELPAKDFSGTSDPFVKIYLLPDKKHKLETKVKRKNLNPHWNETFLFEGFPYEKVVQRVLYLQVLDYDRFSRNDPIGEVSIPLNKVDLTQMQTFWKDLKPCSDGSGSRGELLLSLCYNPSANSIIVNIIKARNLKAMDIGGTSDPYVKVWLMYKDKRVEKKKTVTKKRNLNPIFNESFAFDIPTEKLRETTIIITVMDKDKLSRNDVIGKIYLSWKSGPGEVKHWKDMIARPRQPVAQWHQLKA
UniProt P54282: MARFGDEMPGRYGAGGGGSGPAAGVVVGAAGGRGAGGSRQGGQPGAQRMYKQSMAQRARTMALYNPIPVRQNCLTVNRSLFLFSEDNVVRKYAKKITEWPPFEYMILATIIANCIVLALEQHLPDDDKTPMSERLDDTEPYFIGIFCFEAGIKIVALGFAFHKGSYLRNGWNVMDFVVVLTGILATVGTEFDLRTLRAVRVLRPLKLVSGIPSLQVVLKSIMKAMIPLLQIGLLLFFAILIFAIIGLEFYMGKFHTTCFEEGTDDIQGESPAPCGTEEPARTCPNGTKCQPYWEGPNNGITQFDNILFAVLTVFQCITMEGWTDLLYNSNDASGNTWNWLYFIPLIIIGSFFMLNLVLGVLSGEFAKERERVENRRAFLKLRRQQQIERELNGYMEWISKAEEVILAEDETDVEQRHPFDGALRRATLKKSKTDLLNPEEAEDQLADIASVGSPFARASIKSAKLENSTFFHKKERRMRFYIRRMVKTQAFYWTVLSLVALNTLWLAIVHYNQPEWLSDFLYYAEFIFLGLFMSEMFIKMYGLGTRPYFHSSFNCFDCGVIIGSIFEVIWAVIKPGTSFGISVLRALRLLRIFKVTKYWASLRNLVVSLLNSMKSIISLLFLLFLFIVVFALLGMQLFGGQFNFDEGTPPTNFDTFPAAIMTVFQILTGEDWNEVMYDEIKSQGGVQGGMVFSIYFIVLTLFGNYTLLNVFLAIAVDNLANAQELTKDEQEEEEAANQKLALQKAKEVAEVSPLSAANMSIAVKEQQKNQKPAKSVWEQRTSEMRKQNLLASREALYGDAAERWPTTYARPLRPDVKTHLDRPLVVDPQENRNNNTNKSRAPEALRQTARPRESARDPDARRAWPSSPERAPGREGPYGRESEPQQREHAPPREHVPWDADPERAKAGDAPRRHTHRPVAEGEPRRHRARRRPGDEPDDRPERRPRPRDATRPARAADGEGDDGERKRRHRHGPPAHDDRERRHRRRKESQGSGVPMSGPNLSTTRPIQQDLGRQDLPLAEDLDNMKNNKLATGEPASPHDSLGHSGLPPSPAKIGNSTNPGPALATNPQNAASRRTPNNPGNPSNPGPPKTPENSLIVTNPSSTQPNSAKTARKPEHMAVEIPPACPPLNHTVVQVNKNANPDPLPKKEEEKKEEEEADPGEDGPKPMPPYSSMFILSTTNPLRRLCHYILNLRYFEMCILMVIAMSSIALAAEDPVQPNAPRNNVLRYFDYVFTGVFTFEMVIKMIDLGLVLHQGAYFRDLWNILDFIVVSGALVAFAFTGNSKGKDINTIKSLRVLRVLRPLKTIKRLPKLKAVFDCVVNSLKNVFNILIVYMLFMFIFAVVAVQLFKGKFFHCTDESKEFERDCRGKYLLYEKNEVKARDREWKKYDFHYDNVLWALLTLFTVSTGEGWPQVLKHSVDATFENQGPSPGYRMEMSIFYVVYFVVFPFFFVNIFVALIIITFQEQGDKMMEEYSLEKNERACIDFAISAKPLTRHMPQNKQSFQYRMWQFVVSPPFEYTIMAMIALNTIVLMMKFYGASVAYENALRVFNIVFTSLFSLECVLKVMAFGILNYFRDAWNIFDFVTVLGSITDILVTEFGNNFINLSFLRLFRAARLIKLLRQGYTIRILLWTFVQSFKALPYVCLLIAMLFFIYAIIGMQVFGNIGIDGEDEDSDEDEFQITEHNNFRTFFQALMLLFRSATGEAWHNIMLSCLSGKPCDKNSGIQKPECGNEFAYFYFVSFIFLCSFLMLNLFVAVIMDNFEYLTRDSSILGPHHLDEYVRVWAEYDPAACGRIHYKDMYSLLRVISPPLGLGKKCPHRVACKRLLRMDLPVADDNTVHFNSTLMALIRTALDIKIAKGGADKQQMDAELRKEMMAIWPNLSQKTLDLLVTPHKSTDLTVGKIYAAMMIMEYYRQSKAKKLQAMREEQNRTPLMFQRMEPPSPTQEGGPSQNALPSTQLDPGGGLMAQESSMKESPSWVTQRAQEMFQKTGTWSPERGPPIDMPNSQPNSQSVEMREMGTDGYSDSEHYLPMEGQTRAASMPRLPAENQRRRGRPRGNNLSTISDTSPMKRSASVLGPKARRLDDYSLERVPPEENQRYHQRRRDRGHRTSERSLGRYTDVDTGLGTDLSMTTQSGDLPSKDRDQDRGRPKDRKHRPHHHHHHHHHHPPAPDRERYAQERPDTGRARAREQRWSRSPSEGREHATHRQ
UniProt P97445: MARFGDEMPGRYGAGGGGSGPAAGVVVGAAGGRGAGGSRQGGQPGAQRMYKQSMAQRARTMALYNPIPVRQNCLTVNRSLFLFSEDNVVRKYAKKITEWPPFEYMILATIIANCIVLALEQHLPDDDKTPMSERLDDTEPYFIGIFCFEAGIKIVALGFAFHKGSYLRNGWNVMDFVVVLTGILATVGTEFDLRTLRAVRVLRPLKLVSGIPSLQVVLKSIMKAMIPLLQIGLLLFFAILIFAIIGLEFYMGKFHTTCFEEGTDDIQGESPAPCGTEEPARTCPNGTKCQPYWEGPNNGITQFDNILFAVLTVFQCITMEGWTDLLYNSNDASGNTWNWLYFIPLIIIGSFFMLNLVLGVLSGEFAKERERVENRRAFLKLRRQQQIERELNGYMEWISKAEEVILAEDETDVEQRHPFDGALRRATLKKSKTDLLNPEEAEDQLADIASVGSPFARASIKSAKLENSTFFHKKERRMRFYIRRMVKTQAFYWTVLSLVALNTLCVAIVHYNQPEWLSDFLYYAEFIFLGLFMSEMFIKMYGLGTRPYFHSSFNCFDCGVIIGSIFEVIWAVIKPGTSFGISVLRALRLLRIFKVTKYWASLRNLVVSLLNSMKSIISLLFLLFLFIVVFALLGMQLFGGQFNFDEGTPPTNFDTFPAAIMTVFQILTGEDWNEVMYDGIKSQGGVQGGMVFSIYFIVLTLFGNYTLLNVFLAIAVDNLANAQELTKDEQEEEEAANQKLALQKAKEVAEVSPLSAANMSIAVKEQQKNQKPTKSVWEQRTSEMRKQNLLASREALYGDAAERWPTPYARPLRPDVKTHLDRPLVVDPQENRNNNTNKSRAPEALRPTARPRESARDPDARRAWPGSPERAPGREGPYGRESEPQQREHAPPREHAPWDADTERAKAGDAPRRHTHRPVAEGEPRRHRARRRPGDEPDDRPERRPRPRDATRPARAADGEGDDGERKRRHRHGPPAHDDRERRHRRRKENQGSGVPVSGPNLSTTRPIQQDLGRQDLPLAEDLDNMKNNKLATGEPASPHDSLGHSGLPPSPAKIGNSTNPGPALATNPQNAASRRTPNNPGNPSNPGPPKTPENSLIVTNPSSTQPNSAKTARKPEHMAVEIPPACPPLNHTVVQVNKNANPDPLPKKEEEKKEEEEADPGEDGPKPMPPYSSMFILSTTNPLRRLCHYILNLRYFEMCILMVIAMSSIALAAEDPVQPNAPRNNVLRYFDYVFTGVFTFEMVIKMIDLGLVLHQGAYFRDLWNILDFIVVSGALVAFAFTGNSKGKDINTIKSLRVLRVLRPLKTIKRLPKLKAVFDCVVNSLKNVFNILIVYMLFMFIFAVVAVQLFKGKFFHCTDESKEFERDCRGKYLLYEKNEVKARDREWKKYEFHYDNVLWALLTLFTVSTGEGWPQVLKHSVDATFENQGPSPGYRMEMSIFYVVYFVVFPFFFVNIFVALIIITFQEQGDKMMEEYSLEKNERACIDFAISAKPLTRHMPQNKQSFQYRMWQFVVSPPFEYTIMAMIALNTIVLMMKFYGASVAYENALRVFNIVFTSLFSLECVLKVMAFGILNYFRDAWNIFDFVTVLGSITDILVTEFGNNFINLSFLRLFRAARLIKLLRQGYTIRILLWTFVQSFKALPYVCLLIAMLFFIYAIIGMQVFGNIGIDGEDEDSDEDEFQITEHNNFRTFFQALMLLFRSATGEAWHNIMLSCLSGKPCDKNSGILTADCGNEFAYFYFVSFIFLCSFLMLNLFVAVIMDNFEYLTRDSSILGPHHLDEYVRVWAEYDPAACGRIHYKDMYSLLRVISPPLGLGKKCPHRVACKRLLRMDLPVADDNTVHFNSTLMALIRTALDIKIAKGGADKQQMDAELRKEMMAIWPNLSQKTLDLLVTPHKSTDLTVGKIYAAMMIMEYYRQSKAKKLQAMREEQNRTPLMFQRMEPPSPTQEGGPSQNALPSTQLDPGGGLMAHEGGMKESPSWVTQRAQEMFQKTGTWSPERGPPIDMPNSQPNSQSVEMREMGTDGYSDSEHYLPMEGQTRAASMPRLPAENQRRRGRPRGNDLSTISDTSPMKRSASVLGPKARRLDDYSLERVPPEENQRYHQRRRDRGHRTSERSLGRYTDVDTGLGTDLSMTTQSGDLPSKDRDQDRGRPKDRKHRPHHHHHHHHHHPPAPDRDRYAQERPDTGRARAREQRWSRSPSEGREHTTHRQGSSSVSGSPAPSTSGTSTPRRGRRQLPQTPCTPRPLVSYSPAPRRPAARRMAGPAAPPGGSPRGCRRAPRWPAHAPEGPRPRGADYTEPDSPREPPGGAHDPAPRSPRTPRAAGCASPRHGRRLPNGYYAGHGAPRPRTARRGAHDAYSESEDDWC
UniProt P21707: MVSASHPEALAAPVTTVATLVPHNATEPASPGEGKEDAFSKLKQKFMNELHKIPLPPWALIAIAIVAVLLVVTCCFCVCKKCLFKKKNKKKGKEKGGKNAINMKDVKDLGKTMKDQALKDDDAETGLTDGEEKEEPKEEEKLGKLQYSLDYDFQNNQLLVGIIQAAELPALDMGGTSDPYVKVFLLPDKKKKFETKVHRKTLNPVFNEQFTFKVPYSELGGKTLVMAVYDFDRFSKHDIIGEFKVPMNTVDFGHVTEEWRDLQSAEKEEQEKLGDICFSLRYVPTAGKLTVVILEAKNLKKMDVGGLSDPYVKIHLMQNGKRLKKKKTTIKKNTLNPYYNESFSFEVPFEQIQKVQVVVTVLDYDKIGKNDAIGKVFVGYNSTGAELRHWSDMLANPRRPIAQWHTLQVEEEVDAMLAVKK

Assays:
[1] = biological target: Synaptotagmin-7 (Syt-7α), endogenous in mouse brain membranes (mouse (endogenous in brain)) (UniProt Q9R0N7); assay: co-IP; mouse brain (membrane) lysate; Dynabeads Protein G with anti-Cav2.1 or anti-Syt-7 antibody; TBS with Ca2+-buffering system (50 mM Tris/HCl, 140 mM NaCl, 50 mM HEPES pH 7.2, 5 mM HydroxyEDTA, 0.3% Triton X-100, Ca2+ 10 μM to 5 mM); 4°C overnight; immunoblot
[2] = biological target: Synaptotagmin-7β expressed in tsA-201 cells (UniProt Q9R0N7); assay: co-IP; lysates of transfected tsA-201 cells; Dynabeads Protein G with anti-Cav2.1 or anti-Syt-7 antibody; TBS with Ca2+-buffering system, 0.3% Triton X-100; 4°C overnight; immunoblot
[3] = biological target: Synaptotagmin-7α expressed in tsA-201 cells (UniProt Q9R0N7); assay: as above
[4] = biological target: Synaptotagmin-7γ expressed in tsA-201 cells (UniProt Q9R0N7); assay: as above
[5] = biological target: GST-Syt-7α fusion protein (full-length Syt-7α) (UniProt Q9R0N7); assay: pull-down; GST-Syt-7α immobilised on glutathione-Sepharose beads, incubated with purified His-synprint proteins 1 h at 4°C; TBS-Ca2+ buffering system with 0.1% Triton X-100, free Ca2+ 10 μM to 1 mM; eluted with 15 mM reduced glutathione; anti-His immunoblot; both purified
[6] = biological target: Cav2.1 channel α1A subunit expressed in tsA-201 cells (UniProt P54282); assay: co-IP; modified experimental protocol (conditions not told); lysates of co-transfected tsA-201 cells; Cav2.1-specific antibodies as precipitating antibodies
[7] = biological target: Cav2.1 channel (α1A subunit), endogenous in mouse brain membranes (mouse (endogenous in brain)) (UniProt P97445); assay: co-IP; modified experimental protocol (conditions not told); mouse brain lysate; three different buffered concentrations of free Ca2+
[8] = biological target: Cav2.1 channel (α1A subunit), endogenous in mouse brain membranes (mouse (endogenous in brain)) (UniProt P97445); assay: co-IP; mouse brain (membrane) lysate; Dynabeads Protein G with anti-Cav2.1 or anti-Syt-7 antibody; TBS with Ca2+-buffering system (50 mM Tris/HCl, 140 mM NaCl, 50 mM HEPES pH 7.2, 5 mM HydroxyEDTA, 0.3% Triton X-100, Ca2+ 10 μM to 5 mM); 4°C overnight; immunoblot
[9] = biological target: Cav2.1 channel α1A subunit expressed in tsA-201 cells (UniProt P54282); assay: co-IP; lysates of transfected tsA-201 cells; Dynabeads Protein G with anti-Cav2.1 or anti-Syt-7 antibody; TBS with Ca2+-buffering system, 0.3% Triton X-100; 4°C overnight; immunoblot

Cav2.1 channel (α1A subunit), endogenous in mouse brain membranes (from UniProt P97445 1-2368)
binding [1]: binds

Cav2.1 channel α1A subunit expressed in tsA-201 cells (from UniProt P54282 1-2212)
binding [2]: binds
binding [3]: binds
binding [4]: binds

His-Cav2.1 synprint (724–981) (from UniProt P54282 724-981) (domain or fragment)
binding [5]: binds

Synaptotagmin-1 expressed in tsA-201 cells (from UniProt P21707 1-421)
binding [6]: binds

Synaptotagmin-7 (Syt-7α), endogenous in mouse brain membranes (from UniProt Q9R0N7-1 1-403)
binding [7]: binds
binding [8]: binds

Synaptotagmin-7α expressed in tsA-201 cells (from UniProt Q9R0N7-1 1-403)
binding [6]: binds
binding [9]: binds

Synaptotagmin-7β expressed in tsA-201 cells (from UniProt Q9R0N7-3 1-447)
binding [9]: binds

Synaptotagmin-7γ expressed in tsA-201 cells (from UniProt Q9R0N7-2 1-518)
binding [9]: binds
